Assay results: patent US20020018783A1
These are yes or no findings as the source states them, for the method shown. In cells and extracts the contact can be indirect. Some results given as binding are weak or reduced against the parent protein; the word gives no strength.

Amino acid sequences for entries named in this document (tags omitted). Residues count along the entry.
UniProt P27986: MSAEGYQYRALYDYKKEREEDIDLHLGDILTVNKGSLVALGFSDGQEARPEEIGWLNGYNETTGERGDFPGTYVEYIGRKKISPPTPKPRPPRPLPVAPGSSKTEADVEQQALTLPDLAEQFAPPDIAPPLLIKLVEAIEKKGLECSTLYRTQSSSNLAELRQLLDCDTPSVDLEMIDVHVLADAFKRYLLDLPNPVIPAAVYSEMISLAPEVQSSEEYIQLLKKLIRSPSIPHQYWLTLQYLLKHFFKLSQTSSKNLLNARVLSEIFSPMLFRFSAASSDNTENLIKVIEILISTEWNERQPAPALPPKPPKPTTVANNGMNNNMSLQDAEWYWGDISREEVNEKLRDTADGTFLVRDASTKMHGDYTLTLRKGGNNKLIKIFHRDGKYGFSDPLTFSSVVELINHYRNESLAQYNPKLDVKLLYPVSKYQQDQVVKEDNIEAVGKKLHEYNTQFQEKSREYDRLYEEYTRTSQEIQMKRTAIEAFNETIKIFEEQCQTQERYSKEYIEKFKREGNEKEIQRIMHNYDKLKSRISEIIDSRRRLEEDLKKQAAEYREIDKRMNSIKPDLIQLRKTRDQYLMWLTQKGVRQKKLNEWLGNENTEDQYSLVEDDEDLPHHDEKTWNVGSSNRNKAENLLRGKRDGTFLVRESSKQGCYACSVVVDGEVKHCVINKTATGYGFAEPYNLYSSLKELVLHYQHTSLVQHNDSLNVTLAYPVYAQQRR
UniProt P10747, residues 19-220: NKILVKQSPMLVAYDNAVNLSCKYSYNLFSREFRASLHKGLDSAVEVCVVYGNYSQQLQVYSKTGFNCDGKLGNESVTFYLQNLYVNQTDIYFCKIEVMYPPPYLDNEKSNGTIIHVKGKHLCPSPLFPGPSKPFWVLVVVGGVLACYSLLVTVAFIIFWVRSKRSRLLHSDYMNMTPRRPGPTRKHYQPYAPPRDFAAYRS

Biological target: p85 subunit of the PI3-kinase (human) (UniProt P27986)
Assay: co-immunoprecipitation, anti-p85 immunoblot, Jurkat cells

binding: binds
Substance: endogenous CD28 (human, on Jurkat cells and primary T lymphocytes) (from UniProt P10747 19-220) (receptor)
